Experimental data as given in patent EP0554284B1, “PEPTIDE-BASED INHIBITORS OF HIV REPLICATION” (priority 1990, dated 1996).
At least one peptide structure holds a part that was inferred or is arguable (an end, a ring closure or a residue).

Experiments:
[1] = test system: variant of TAR which does not bind tat; assay: RNA gel mobility shift assay, binding to non-functional TAR variant (specificity); design: species or system HIV; conditions: relative to binding to the non-functional TAR variant; result in words
Protocol: (§1) TAR-binding affinity of the oligopeptides relative to HIV tat(1-86) and relative to tat fragments representing the tat basic domain, was evaluated by RNA gel mobility shift assay using as ligand a truncated functional form of TAR RNA having the sequence shown below.
Synthesis of the TAR fragment and its variant analogue was accomplished as described by Roy et al. in Genes and Development, 1990, 4:1365. The TAR-binding assay was also performed in the manner reported by Roy et al., supra, which is incorporated herein by reference.

[2] = test system: truncated functional form of TAR RNA; assay: RNA gel mobility shift assay, TAR binding; design: species or system HIV; conditions: judged relative to tat(1-86) and the oligopeptide representing the tat basic domain; result in words
Protocol: This assay generally involves the incubation of a selected oligopeptide with gel-purified, radio-labelled TAR RNA, or tat-binding fragment of TAR RNA, that has been produced either by direct synthesis or through transcription of a corresponding DNA template. Samples are loaded onto non-denaturing polyacrylamide gel and subjected to electrophoresis, and then migration of labelled RNA through the gel is visualized on gel-exposed, X-ray film. Oligopeptides which bind TAR are identified in this assay by their characteristic, retarded migration on the gel, relative to TAR RNA to which no oligopeptide has bound. In this mobility shift assay, oligopeptides having an "enhanced" affinity for binding TAR RNA will resolve on the gel as bands which, in addition to displaying the retarded migration pattern characteristic of TAR-binding oligopeptides, will also appear with greater intensity and/or size than a band containing TAR RNA bound to tat (1-86).
as §1
Synthesis of the TAR fragment and its variant analogue was accomplished as described by Roy et al. in Genes and Development, 1990, 4:1365. […]

HIV (strain NL4-3) = format: cell-based; conditions: 5µM pretreatment of HuT78 cells, 7 or 14 days; result in words
Description: Controls used water in place of peptide.

SMILES	specificity for binding to the functional TAR fragment [1]	TAR-binding affinity [2]	effects on HIV inhibition (HIV (strain NL4-3))
N=C(N)NCCC[C@H](NC(=O)[C@H](CCCNC(=N)N)NC(=O)[C@H](CCCNC(=N)N)NC(=O)[C@H](CCCNC(=N)N)NC(=O)[C@H](CCCNC(=N)N)NC(=O)[C@H](CCCNC(=N)N)NC(=O)[C@H](CCCNC(=N)N)NC(=O)[C@H](CCCNC(=N)N)NC(=O)[C@@H](N)CCCNC(=N)N)C(=O)O [arginine homopolymer, L-(Arg-Arg-Arg-Arg-Arg-Arg-Arg-Arg-Arg)]	bound selectively to the functional TAR fragment	greater affinity	–
N=C(N)NCCC[C@@H](N)C(=O)N[C@H](CCCCN)C(=O)N[C@H](CCCCN)C(=O)N[C@H](CCCNC(=N)N)C(=O)N[C@H](CCCNC(=N)N)C(=O)N[C@H](CCC(N)=O)C(=O)N[C@H](CCCNC(=N)N)C(=O)N[C@H](CCCNC(=N)N)C(=O)N[C@H](CCCNC(=N)N)C(=O)O [peptide 4A, D-[Arg-Lys-Lys-Arg-Arg-Gln-Arg-Arg-Arg]]	–	binding of the oligopeptide to the RNA	positive effects on HIV inhibition
